Results taken from US20250295790A1, “LECTIN-TARGETING CONJUGATES” (Helmholtz-Zentrum für Infektionsforschung GmbH, priority 2021, published 2025).
Some entries share one result that the patent states for a list of compounds.

Assays:
P. aeruginosa PA14 = experiment: Antibiotic susceptibility (MIC assay, broth microdilution); format: cell-based, Pseudomonas aeruginosa PA14
Protocol: Bacterial strains were streaked on LB-agar plates (1% agar) from glycerol stocks and incubated at 37° C. overnight. Colonies were picked from plate and dispersed in fresh MiGler-Hinton broth II (MHB II) to yield an OD600 of 0.08-0.13. This dispersion was diluted 1:100 in fresh MHB II, which was then used for the assay to achieve a final inoculum of 5×10^5 CFU/mL. 50 μL inoculum was mixed with 50 μL of the serial dilution in the corresponding well of the 96-well plate.
The different matrices were prepared under sterile conditions: (i) 5 mL human plasma and 1 mL sterile filtrate from an P. aeruginosa PA14 overnight culture in LB were mixed with 4 mL PBS; (ii) 1 mL sterile filtrate from an P. aeruginosa PA14 overnight culture was diluted in 9 mL PBS; (iii) PBS only and (iv) 5 mL human plasma and 1 mL LB were mixed with 4 mL PBS. 6 L of each compound dilution series was diluted in 115 L matrix (˜-1:20 dilution) in a 96-well format at time point T=−3 h or T=−10 min.
The plates prepared at T=−3 h were sealed with gas-permeable foil and incubated at 37° C. in a humid incubator. The other plates were kept at room temperature. At T=0 h, 50 µL of each well was mixed with 50 μL incoculum (as described above) in double-concentrated MHBII in a sterile 96-well plate.
The plates were sealed with gas-permeable foil and incubated at 37° C. for 18-20 h in a humid incubator. Growth inhibition was assessed by visual inspection and given MIC values are the lowest concentration of antibiotic at which there was no visible growth.

A549 cells = experiment: Cytotoxicity assay (MTT); format: cell-based, human; settings: A549 IC50 versus in-vitro antibiotic activity
Description: Then supernatant was transferred to a 96-well-plate. […] The experiment was repeated at least three times. The error bars indicate the standard deviation.

[1] = Matrix 1: PBS, pre-incubation time not specified

Compound | MIC (P. aeruginosa PA14; [1]) [µM] | MIC (P. aeruginosa PA14; Matrix 2: 50% human blood plasma + 10% P. aeruginosa culture supernatant in PBS, pre-incubation 3 h) [µM] | MIC (P. aeruginosa PA14; Matrix 4, pre-incubation in human blood plasma alone (text b311)) | cytotoxicity IC50 compared to the in-vitro activity (A549 cells)
CC(C)C[C@H](NC(=O)CNC(=O)[C@H](C)NC(=O)c1ccc(S[C@@H]2O[C@H](CO)[C@H](O)[C@H](O)[C@H]2O)cc1)C(=O)N[C@@H](C)C(=O)N[C@H]1CCN(c2cc3c(cc2F)c(=O)c(C(=O)O)cn3C2CC2)C1 [Compound 36] | > 25 | 0.098 to 0.195 | 0.78-6.25 RM | more than 20 fold
CC(C)CC(NC(=O)CNC(=O)C(C)NC(=O)c1ccc(S(=O)(=O)NCC2OC(C)C(O)C(O)C2O)cc1)C(=O)NC(C)C(=O)NCC1CCN(c2cc3c(cc2F)c(=O)c(C(=O)O)cn3C2CC2)C1 (centres unmarked) [Compound 49] | > 25 | – | – | –
